Data from patent US20140045805A1, “Fragrance Compositions and Other Compositions Which Contain Naturally Occurring Substances Found in Corals” (priority 2007, published 2014).

Test system: healthy volunteers (men and women)
Test: Local and general tolerability and safety of airborne nasal delivery
Assay type: in vivo, human
Details: 12 ng intranasal
Procedure: The physiologic and psychological effects of pregna-5,20-dien-3β-ol were investigated in men and women. Additionally, the local and general tolerability and safety of pregna-5,20-dien-3β-ol delivered airborne to the nasal passages were also evaluated.
After completion of physiologic recordings and the modified DABS-70 (#3), all surface electrodes were removed and the subject went through an exit interview lasting 5 minutes. At this time the investigator recorded again the arterial blood pressure and also inquired the subject about his or her state of feelings, and also any possible adverse effect appearing during the study session.

## C=C[C@H]1CC[C@H]2[C@@H]3CC=C4C[C@@H](O)CC[C@]4(C)[C@H]3CC[C@]12C [pregna-5,20-dien-3β-ol, Pregna-5,20-dien-3β-ol]
  Perception of the substance as an odor: none of the volunteers studied was able to smell; also recorded: did not perceive the active substance as an odor

“Also recorded” adds a separate entry of the source.
